Test results from ChEMBL document CHEMBL5584316, “Arcopilins: A New Family of Staphylococcus aureus Biofilm Disruptors from the Soil Fungus Arcopilus navicularis” (J Med Chem, 2024).

Test system: Candida albicans
Assay: Antimicrobial activity against Candida albicans DSM 1665 assessed as inhibition of microbial growth incubated overnight by serial dilution method
Type: functional

Sequence: NYSTATIN
- MIC: 8.3 µg/mL
